These are yes or no findings as the source states them, for the method shown. In cells and extracts the contact can be indirect. Some entries that bind do so weakly or less than the wild type.

Protein sequences, listed by entry. Tags and fused reporters are not part of them.
UniProt Q61221: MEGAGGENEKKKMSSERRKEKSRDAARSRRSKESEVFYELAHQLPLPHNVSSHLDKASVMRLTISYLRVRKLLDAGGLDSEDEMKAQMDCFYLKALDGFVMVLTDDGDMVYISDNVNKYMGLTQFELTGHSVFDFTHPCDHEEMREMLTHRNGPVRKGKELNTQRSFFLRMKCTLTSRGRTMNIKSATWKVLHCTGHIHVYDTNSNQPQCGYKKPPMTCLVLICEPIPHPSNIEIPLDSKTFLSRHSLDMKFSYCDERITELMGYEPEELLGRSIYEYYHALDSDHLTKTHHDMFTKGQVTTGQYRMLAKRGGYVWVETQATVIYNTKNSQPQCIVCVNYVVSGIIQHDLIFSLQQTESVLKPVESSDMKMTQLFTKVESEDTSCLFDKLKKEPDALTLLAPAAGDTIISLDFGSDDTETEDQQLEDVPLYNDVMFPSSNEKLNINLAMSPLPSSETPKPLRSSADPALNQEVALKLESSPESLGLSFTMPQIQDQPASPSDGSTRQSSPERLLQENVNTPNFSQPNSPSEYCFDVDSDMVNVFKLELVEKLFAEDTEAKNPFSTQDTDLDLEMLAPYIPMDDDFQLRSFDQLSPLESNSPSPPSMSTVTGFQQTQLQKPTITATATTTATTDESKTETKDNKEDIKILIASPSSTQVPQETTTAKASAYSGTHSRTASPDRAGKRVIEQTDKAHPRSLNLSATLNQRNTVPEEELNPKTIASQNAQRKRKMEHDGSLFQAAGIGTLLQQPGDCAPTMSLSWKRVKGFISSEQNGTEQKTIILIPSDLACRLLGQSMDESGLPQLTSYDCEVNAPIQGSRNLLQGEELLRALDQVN
UniProt Q91Y86: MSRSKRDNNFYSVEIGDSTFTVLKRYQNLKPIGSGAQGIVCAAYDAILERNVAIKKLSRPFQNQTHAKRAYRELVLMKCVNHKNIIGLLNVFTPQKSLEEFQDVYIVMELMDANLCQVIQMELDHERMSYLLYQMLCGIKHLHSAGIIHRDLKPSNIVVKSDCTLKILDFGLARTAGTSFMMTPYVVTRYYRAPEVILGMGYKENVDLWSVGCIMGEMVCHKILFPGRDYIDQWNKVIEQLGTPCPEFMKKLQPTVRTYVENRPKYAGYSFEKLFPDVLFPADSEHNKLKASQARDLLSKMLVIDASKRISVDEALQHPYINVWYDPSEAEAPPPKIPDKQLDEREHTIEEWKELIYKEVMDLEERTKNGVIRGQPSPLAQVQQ

The record followed here is paper PMC7464583.

Assay [1] concerns the target T1, endogenous WWOX (mouse (endogenous in BALB/c mouse organs)) (UniProt Q91WL8).
T1 sequence: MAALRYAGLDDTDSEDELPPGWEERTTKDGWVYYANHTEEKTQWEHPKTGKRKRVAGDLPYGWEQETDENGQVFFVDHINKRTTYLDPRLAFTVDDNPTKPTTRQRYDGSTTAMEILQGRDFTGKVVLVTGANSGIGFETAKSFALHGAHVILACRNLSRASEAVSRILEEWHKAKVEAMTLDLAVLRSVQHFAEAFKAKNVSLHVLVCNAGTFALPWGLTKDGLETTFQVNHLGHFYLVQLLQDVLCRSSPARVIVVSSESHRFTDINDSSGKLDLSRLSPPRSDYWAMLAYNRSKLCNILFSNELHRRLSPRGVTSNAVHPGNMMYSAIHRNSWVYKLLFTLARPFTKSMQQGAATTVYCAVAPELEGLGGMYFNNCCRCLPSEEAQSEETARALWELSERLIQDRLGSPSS
Put plainly: co-IP; spleen lysates (500 μg) of BALB/c mice given PBS, Zfra4-10 and/or WWOX7-21 peptide and inoculated with 4T1 cells; specific antibody (3 μg) and protein G agarose beads, 6 to 18 h, washed with PBS; Western blot.

In assay [2] the target is HIF-1α (mouse (endogenous in BALB/c mouse spleen)) (UniProt Q61221). The assay is described as above.
Assay [3] deals with T2, Zinc finger-like protein that regulates apoptosis (Zfra), full length, expressed from Zfra-pIRES2-Wwox-DsRed-Express (human/murine).
T2 sequence: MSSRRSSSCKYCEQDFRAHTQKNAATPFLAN
Put plainly: co-IP; Zfra and WWOX-DsRed from a bicistronic pIRES-based vector transiently overexpressed in COS7 cells; precipitated with Zfra antiserum; reducing SDS-PAGE, complex at ~76 kDa.

In the case of JNK1 (from UniProt Q91Y86 1-384), in assay [1], the binding result was “binds”.

B1: C1qBP (protein, UniProt O35658 71-278)
chain: LHTEGDKAFVEFLTDEIKEEKKIQKHKSLPKMSGDWELEVNGTEAKLLRKVAGEKITVTFNINNSIPPTFDGEEEPSQGQKAEEQEPERTSTPNFVVEVTKTDGKKTLVLDCHYPEDEIGHEDEAESDIFSIKEVSFQATGDSEWRDTNYTLNTDSLDWALYDHLMDFLADRGVDNTFADELVELSTALEHQEYITFLEDLKSFVKNQ
In the case of B1, the binding entry in assay [2] and in assay [1] was “binds” throughout.

B2: Foxp3 (protein, UniProt Q99JB6 1-417)
chain: MPNPRPAKPMAPSLALGPSPGVLPSWKTAPKGSELLGTRGSGGPFQGRDLRSGAHTSSSLNPLPPSQLQLPTVPLVMVAPSGARLGPSPHLQALLQDRPHFMHQLSTVDAHAQTPVLQVRPLDNPAMISLPPPSAATGVFSLKARPGLPPGINVASLEWVSREPALLCTFPRSGTPRKDSNLLAAPQGSYPLLANGVCKWPGCEKVFEEPEEFLKHCQADHLLDEKGKAQCLLQREVVQSLEQQLELEKEKLGAMQAHLAGKMALAKAPSVASMDKSSCCIVATSTQGSVLPAWSAPREAPDGGLFAVRRHLWGSHGNSSFPEFFHNMDYFKYHNMRPPFTYATLIRWAILEAPERQRTLNEIYHWFTRMFAYFRNHPATWKNAIRHNLSLHKCFVRVESEKGAVWTVDEFEFRKKR
Consider B2, for which the binding entry in assay [1] is reported as “binds”.

B3: WWOX-DsRed (murine Wwox cloned in pIRES2-DsRed-Express) (protein, UniProt Q91WL8 1-414)
chain: T1 sequence
With B3, the binding result in assay [3] is “binds”.

B4: p21 (protein, UniProt P39689 1-159)
chain: MSNPGDVRPVPHRSKVCRCLFGPVDSEQLRRDCDALMAGCLQEARERWNFDFVTETPLEGNFVWERVRSLGLPKVYLSPGSRSRDDLGGDKRPSTSSALLQGPAPEDHVALSLSCTLVSERPEDSPGGPGTSQGRKRRQTSLTDFYHSKRRLVFCKRKP
For the molecule B4, the binding result in assay [2] was “binds weakly”; in assay [1], “binds”.

B5: CD133 (protein, UniProt O54990 20-867)
chain: EGQPAFHNTPGAMNYELPTTKYETQDTFNAGIVGPLYKMVHIFLSVVQPNDFPLDLIKKLIQNKKFDISVDSKEPEIIVLALKIALYEIGVLICAILGLLFIILMPLVGCFFCMCRCCNKCGGEMHQRQKQNAPCRRKCLGLSLLVICLLMSLGIIYGFVANQQTRTRIKGTQKLAKSNFRDFQTLLTETPKQIDYVVEQYTNTKNKAFSDLDGIGSVLGGRIKDQLKPKVTPVLEEIKAMATAIKQTKDALQNMSSSLKSLQDAATQLNTNLSSVRNSIENSLSSSDCTSDPASKICDSIRPSLSSLGSSLNSSQLPSVDRELNTVTEVDKTDLESLVKRGYTTIDEIPNTIQNQTVDVIKDVKNTLDSISSNIKDMSQSIPIEDMLLQVSHYLNNSNRYLNQELPKLEEYDSYWWLGGLIVCFLLTLIVTFFFLGLLCGVFGYDKHATPTRRGCVSNTGGIFLMAGVGFGFLFCWILMILVVLTFVVGANVEKLLCEPYENKKLLQVLDTPYLLKEQWQFYLSGMLFNNPDINMTFEQVYRDCKRGRGIYAAFQLENVVNVSDHFNIDQISENINTELENLNVNIDSIELLDNTGRKSLEDFAHSGIDTIDYSTYLKETEKSPTEVNLLTFASTLEAKANQLPEGKPKQAFLLDVQNIRAIHQHLLPPVQQSLNTLRQSVWTLQQTSNKLPEKVKKILASLDSVQHFLTNNVSLIVIGETKKFGKTILGYFEHYLHWVFYAITEKMTSCKPMATAMDSAVNGILCGYVADPLNLFWFGIGKATVLLLPAVIIAIKLAKYYRRMDSEDVYDDVETVPMKNLEIGSNGYHKDHLYGVHNPVMTSPSRY
In the case of B5, the binding result in assay [1] is “binds”.
